Screening data, single-dose tests

The chains behind the UniProt entries cited, without tags or fusion partners.
UniProt P9WPC5, whole entry: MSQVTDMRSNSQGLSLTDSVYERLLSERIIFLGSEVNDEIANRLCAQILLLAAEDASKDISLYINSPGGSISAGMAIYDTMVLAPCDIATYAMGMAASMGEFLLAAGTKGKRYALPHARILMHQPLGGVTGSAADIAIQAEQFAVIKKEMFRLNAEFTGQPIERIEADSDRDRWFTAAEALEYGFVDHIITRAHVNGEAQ
UniProt P9WPC3, whole entry partner: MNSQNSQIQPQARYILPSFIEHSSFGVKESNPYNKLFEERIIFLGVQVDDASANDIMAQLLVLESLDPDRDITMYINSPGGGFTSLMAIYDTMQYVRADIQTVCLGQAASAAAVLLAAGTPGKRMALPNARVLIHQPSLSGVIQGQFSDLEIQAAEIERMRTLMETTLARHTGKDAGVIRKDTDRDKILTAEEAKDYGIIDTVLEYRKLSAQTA

From ChEMBL document CHEMBL3988442, “University of Dundee, Small-Polar-MMV Screening Library” (2021).

Toxoplasma: 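Assay of Toxoplasma gondii numbers, read through their beta-galactosidase reporter with a colour substrate. Compounds at 10 µM. Higher reads as fewer parasites (inferred from which compounds were picked for retests). Of about 67,000 compounds tested this way, about 260 (0.38%) reached 50% or more in at least one test.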
ClpP1P2: 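ClpP1P2, Mycobacterium tuberculosis (UniProt P9WPC5 and UniProt P9WPC3). Protease assay of ClpP1P2, read by the AMC dye that it sets free. Concentration: 50 µM. Higher reads as stronger inhibition, judged from the few compounds that gave an IC50. Most other retested compounds had strongly negative values. Of about 69,000 compounds tested this way, about 10 (0.015%) reached 50% or more in at least one test.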
Leishmania in macrophages: 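Cell assay of Leishmania donovani living inside macrophages; the read-out is not stated. Compounds at 30 µM. Direction is inferred from retests: higher values go with stronger inhibition. Size under these conditions: about 69,000 compounds, about 1,000 of them at 50% or above in at least one test.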
T. brucei: 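Whole-parasite assay of Trypanosoma brucei over 72 hours; the read-out is not stated. Concentration: 30 µM. The record gives no direction; compounds that gave an IC50 in retests scored well above the rest, so higher reads as stronger inhibition. Values scatter widely below zero; nearly all retest evidence comes from the higher of the two concentrations used. Of about 64,000 compounds tested this way, about 940 (1.5%) reached 50% or more in at least one test.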

Values are the deposited “Percent Effect”, in %.
The controls that fix the scale are not given in the record; negative values are as filed.
Compounds were drawn at random from those tested, without regard to their results.
Two or more numbers in one place are separate tests of the same structure; such repeats can differ widely.
A dash means the value is not listed here; it may have been measured.

Compound	Toxoplasma	ClpP1P2	Leishmania in macrophages	T. brucei
Cc1ccc(CN2CCC3(CCC3NS(=O)(=O)c3ccccc3)CC2)o1.O=C(O)C(F)(F)F (stereo not drawn)	-5.448	-	-4.897	-47.07
Cc1nc2[nH]cc(C(=O)N3CCCCC3c3ccc(F)cc3)c(=O)n2n1 (stereo not drawn)	0.6067	11.81	-11.65	-31.2
Cc1ccc(CN2CCC3(CC2)CC(c2cccnc2)C(=O)N3C)o1.O=C(O)C(F)(F)F.O=C(O)C(F)(F)F (stereo not drawn)	16.62	-	16.5	-49.66
CN(C)S(=O)(=O)N1CCC(c2n[nH]cc2-c2ccnc(N)c2)C1 (stereo not drawn)	2.365	37.68	29.45	-8.179
COC(=O)C(C)(C)NC(=O)C1CC(=O)N(C2CCCC2)C1 (stereo not drawn)	30.13	-3.695	21.42	23.14
CCOCC(=O)N1C[C@@H](O)[C@H](N(C)Cc2ccc(OC)cc2)C1	-2.242	-2.041	19.99	11.05
COc1ccc(CC(=O)NC2CCc3nc(C)cn3C2)cc1 (stereo not drawn)	9.07	0.7701	5.204	1.953
COc1ccc(CNCc2ccc(N3CCCCC3)nc2)cc1OC	-32.71	25.07	25.17	-13.89
COc1cc(C2SCC(=O)Nc3ccsc32)cc(OC)c1O (stereo not drawn)	-1.02	1.484	27.83	23.79
CCn1nnc2c1C(COCCN(C)C)CN(S(C)(=O)=O)C2.O=C(O)C(F)(F)F (stereo not drawn)	12.6	-	17 & 19.46	-31.96
CN1C(=O)CCCC12CCCN(C(=O)c1ccoc1)C2 (stereo not drawn)	12.37	0.6167	3.53	-25.95
Cc1ccc(OCc2nc(CNCC3CN(C)CCO3)cs2)cc1 (stereo not drawn)	-14.62	-18.47	43.17	-
[H][C@@]12CCN(C(=O)c3ccc(F)c(F)c3)C[C@]1(COC)CCO2	-0.6657	-	20.08	-23.66
NC(=O)CCC1CCCN(Cc2cnc(N3CCCCC3)nc2)C1 (stereo not drawn)	-7.555	-4.715	46.23	15.32
CC(c1ccccc1F)N(C(=O)CSCC(N)=O)C1CC1 (stereo not drawn)	1.451	-5.681	28.1	13.78
CCc1noc(C(C)N2CCC(NS(=O)(=O)c3ccccc3)CC2)n1 (stereo not drawn)	1.242	2.983	-16.89	-50.28
[H][C@@]12CN(C(=O)c3cccc(C)n3)C[C@]1([H])OCCN2C(C)C	0	-	-4.133	-5.554
O=C(O)C(F)(F)F.[H][C@]12CN(Cc3cccs3)C[C@@]1([H])OCCN(S(=O)(=O)C1CC1)C2	4.202	-	4.115	-45.49
Cn1cc(CN2C[C@@H]3CCC[C@@H](OCc4cccnc4)[C@@H]3C2)cn1	-	14.31	-	-
Cc1ccc(CN(Cc2ncc[nH]2)C2CC(C)(C)NC(C)(C)C2)o1	-	12.83	-	-
COCc1nn(CC2CC2)c2c1CN(C(=O)c1ccno1)CC2	11.28	-0.3882	13.91	-35.72
O=C(Cc1cccs1)N1CC(c2nc(-c3cnccn3)no2)C1	-0.6435	-0.3778	18.76 & 7.481	6.828
CCN1CCN(c2ccc(CNC(=O)c3cc(C)on3)cn2)CC1	-4.781	-24.94	34.62	14.75
CN(CC(=O)N1CCN(c2ccccn2)CC1)c1ccc(Cl)cn1	3.017	-4.916	11.56	5.069
Cc1nn(-c2ncnc3[nH]cnc23)c2c1C(C(C)(C)C)CC(=O)N2 (stereo not drawn)	1.59	-11.6	17.78	101.7
CCN(CC)c1ccc(C2C3=C(COC3=O)Nc3[nH]nc(C)c32)cc1 (stereo not drawn)	10.65	-8.852	26.22	2.628
OCCO[C@H]1C[C@@H](O)C12CCN(Cc1nc(C(F)(F)F)no1)CC2	2.727	-10.03	4.898	4.41
O=C(Nc1cc(C2CCOCC2)[nH]n1)c1cscn1	-6.169	2.976	-5.036	17.43
CCC(NCCn1cc(C)cn1)C(=O)Nc1cc(C)on1 (stereo not drawn)	1.333	13.33	13.73	-54.4
CN1CCC(C(=O)NCCC2CN(c3cnn(C)c(=O)c3)CCO2)CC1 (stereo not drawn)	1.18	5.717	8.745	-3.193
CCN(CCOc1ccc(F)cc1)C(=O)c1ccncc1Cl	-7.564	3.583	-7.321	10.53
O=C(NC1CCCC1)c1nc2c(o1)CN(C(=O)CO)C2	4.722	1.477	13.09	-5.463
CCn1nnc2c1C(COC)CN(C(=O)COc1ccccc1)C2 (stereo not drawn)	6.388	-7.737	-5.463	-19.91
CCC(CC)(CNC(=O)OC(C)(C)C)NC(=O)C1CCOCC1	-9.831	-4.118	16.47	-2.572
COCCN1CC[C@@H](O)[C@@H]1Cc1ccccc1.O=C(O)C(F)(F)F	-6.934	-	3.1	-21.19
Cc1cn2nc(N(C)C3CCCN(c4cccnn4)C3)sc2n1 (stereo not drawn)	34.95	15.93	7.868	-60.37
Cc1noc(C(C)N2CCN(CC(=O)N3CCOCC3)CC2)n1 (stereo not drawn)	-1.156	-6.282	10.37	-3.846
CCOCc1cnc2n1CCN(C(=O)Cc1ccccn1)C2C (stereo not drawn)	-	5.546	-	-
[H][C@@]12CCCO[C@]1([H])[C@H](OCC1CC1)CN2C(=O)c1occc1C	-2.933	-	18.9	34.35
CCc1nc(C)c(C(=O)NCC2COc3cc(OC)ccc3C2)o1 (stereo not drawn)	4.666	-10.03	-33.34	22.43
Cc1n[nH]c(CN2CCN(CC3CC3)[C@@H]3CS(=O)(=O)C[C@@H]32)n1	-	11.41	-	-
COc1ncccc1NC(=O)NC(CCCO)c1ccccc1 (stereo not drawn)	-14.99	-10.55	27.46	-17.34
Cc1nn(-c2ccc(C(=O)O)cc2)c2c1C(c1cccs1)SCC(=O)N2 (stereo not drawn)	8.704	-16.02	8.985	-
CC(C)c1nc(C2CCCN2CCN2CCCCC2)no1 (stereo not drawn)	3.565	5.503	-55.72	-44.63
[H][C@@]12CN(C3CCOCC3)C[C@]1([H])OCC(=O)N2Cc1ccncc1	-0.5932	-	10.64	-5.697
O=C(NC1CCS(=O)(=O)C1)N1CCN(c2cnccn2)CC1 (stereo not drawn)	5.6	23.36	12.59	16.52

4 of the entries, repeated:

Compound	Toxoplasma	ClpP1P2	Leishmania in macrophages	T. brucei
COc1ccc(CC(=O)NC2CCc3nc(C)cn3C2)cc1 (stereo not drawn)	9.07	0.7701	5.204	1.953
Cc1cn2nc(N(C)C3CCCN(c4cccnn4)C3)sc2n1 (stereo not drawn)	34.95	15.93	7.868	-60.37
Cc1noc(C(C)N2CCN(CC(=O)N3CCOCC3)CC2)n1 (stereo not drawn)	-1.156	-6.282	10.37	-3.846
OCCO[C@H]1C[C@@H](O)C12CCN(Cc1nc(C(F)(F)F)no1)CC2	2.727	-10.03	4.898	4.41